From PMC13195094 come the findings set out here.

Protein sequences, listed by entry. Tags and fused reporters are not part of them. Lines headed by an entry give the natural chain unless they say otherwise; changes in a name come on top. Chains listed by the source or under a name are the forms on record and can include a tag or linker. Residues count along the entry.
UniProt P20700: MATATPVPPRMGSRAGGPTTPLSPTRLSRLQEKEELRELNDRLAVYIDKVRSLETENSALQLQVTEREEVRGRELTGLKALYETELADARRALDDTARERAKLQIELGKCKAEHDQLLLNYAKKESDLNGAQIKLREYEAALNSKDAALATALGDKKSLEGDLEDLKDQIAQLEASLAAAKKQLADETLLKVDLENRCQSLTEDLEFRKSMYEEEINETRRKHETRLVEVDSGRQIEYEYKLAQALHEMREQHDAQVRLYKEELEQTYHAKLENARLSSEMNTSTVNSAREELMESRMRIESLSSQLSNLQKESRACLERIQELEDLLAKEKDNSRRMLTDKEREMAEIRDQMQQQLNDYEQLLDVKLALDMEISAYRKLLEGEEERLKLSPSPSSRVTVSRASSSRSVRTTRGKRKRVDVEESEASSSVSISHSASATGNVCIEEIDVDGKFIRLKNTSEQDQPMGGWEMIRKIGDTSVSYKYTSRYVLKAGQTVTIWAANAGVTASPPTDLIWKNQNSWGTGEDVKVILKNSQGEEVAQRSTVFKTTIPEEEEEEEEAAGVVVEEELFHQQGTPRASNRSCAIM
N-terminal GFP-tagged truncated Lamin B1 lacking the NLS (LMNB1_N409): residues 1-409 of P20700
UniProt P62258: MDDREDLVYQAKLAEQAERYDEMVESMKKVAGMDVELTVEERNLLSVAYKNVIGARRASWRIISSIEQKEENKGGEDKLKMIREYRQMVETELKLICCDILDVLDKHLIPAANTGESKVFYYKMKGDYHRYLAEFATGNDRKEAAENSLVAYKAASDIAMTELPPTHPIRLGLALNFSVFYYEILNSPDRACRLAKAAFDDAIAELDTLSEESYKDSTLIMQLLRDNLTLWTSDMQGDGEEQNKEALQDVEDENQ
UniProt P63104: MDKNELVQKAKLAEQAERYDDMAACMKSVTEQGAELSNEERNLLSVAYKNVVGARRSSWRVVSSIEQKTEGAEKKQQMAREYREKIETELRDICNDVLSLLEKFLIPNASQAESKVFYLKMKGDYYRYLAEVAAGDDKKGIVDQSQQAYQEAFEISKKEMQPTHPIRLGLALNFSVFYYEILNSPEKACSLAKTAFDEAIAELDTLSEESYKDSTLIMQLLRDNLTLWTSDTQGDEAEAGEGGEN

Results are given in words; binding and its absence hold for the method and conditions named. In cells and extracts the contact can be indirect. Here binding means that the protein was enriched with, or labelled near, the bait; the list need not be complete. For part of these data: A no says only that the protein was not detected with the bait.

Assay [1] addresses N-terminal GFP-tagged truncated Lamin B1 lacking the NLS (LMNB1_N409) (human) (UniProt P20700). In words: affinity purification with mass spectrometry; lysates of SH-SY5Y-derived neurons expressing GFP, GFP-LMNB1_FL or LMNB1_N409; anti-GFP nanobody agarose beads; same buffers; normalised by GFP peptides; one replicate, fold change alone.
Assay [2] addresses N-terminal GFP-tagged full-length Lamin B1 (human) (UniProt P20700). Kind of assay: affinity purification with mass spectrometry; whole cell extracts of hiPSC-MNs expressing GFP, GFP-LMNB1_FL or LMNB1_N409; anti-GFP nanobody agarose beads, at least 2 h at 4 °C; lysis in 50 mM Tris-HCl pH 7.4, 150 mM NaCl, 0.5 mM EDTA, 2% Triton X-100 with DNase I and RNase A; washes with 150 mM and 500 mM NaCl; specific binding: at least 5-fold over GFP control; three replicates.

In assay [3] the target is N-terminal GFP-tagged truncated Lamin B1 lacking the NLS (LMNB1_N409) (human) (UniProt P20700). The description is as above.
In assay [4] the target is N-terminal GFP-tagged full-length Lamin B1 (human) (UniProt P20700). Kind of assay: affinity purification with mass spectrometry; lysates of SH-SY5Y-derived neurons expressing GFP, GFP-LMNB1_FL or LMNB1_N409; anti-GFP nanobody agarose beads; same buffers; normalised by GFP peptides; one replicate, fold change alone.

With 14-3-3ε (from UniProt P62258 1-255), the binding entry in assay [1] is “binds”. Take “karyopherin subunit alpha 6 (from UniProt O60684 1-536)”: the binding result in assay [2] and in assay [3] was “binds” in each case. Regarding 14-3-3ζ (from UniProt P63104 1-245), the binding entry in assay [1] and in assay [3] was “binds” in each case.

B1: MICAL1 (protein, UniProt Q8TDZ2 1-1067)
chain: MASPTSTNPAHAHFESFLQAQLCQDVLSSFQELCGALGLEPGGGLPQYHKIKDQLNYWSAKSLWTKLDKRAGQPVYQQGRACTSTKCLVVGAGPCGLRVAVELALLGARVVLVEKRTKFSRHNVLHLWPFTIHDLRALGAKKFYGRFCTGTLDHISIRQLQLLLLKVALLLGVEIHWGVTFTGLQPPPRKGSGWRAQLQPNPPAQLANYEFDVLISAAGGKFVPEGFKVREMRGKLAIGITANFVNGRTVEETQVPEISGVARIYNQSFFQSLLKATGIDLENIVYYKDDTHYFVMTAKKQCLLRLGVLRQDWPDTNRLLGSANVVPEALQRFTRAAADFATHGKLGKLEFAQDAHGQPDVSAFDFTSMMRAESSARVQEKHGARLLLGLVGDCLVEPFWPLGTGVARGFLAAFDAAWMVKRWAEGAESLEVLAERESLYQLLSQTSPENMHRNVAQYGLDPATRYPNLNLRAVTPNQVRDLYDVLAKEPVQRNNDKTDTGMPATGSAGTQEELLRWCQEQTAGYPGVHVSDLSSSWADGLALCALVYRLQPGLLEPSELQGLGALEATAWALKVAENELGITPVVSAQAVVAGSDPLGLIAYLSHFHSAFKSMAHSPGPVSQASPGTSSAVLFLSKLQRTLQRSRAKENAEDAGGKKLRLEMEAETPSTEVPPDPEPGVPLTPPSQHQEAGAGDLCALCGEHLYVLERLCVNGHFFHRSCFRCHTCEATLWPGGYEQHPGDGHFYCLQHLPQTDHKAEGSDRGPESPELPTPSENSMPPGLSTPTASQEGAGPVPDPSQPTRRQIRLSSPERQRLSSLNLTPDPEMEPPPKPPRSCSALARHALESSFVGWGLPVQSPQALVAMEKEEKESPFSSEEEEEDVPLDSDVEQALQTFAKTSGTMNNYPTWRRTLLRRAKEEEMKRFCKAQTIQRRLNEIEAALRELEAEGVKLELALRRQSSSPEQQKKLWVGQLLQLVDKKNSLVAEEAELMITVQELNLEEKQWQLDQELRGYMNREENLKTAADRQAEDQVLRKLVDLVNQRDALIRFQEERRLSELALGTGAQG
For B1, the binding result is “no binding” in assay [4] and “binds” in assay [1].

B2: 14-3-3γ (protein, UniProt P61981 1-247)
chain: MVDREQLVQKARLAEQAERYDDMAAAMKNVTELNEPLSNEERNLLSVAYKNVVGARRSSWRVISSIEQKTSADGNEKKIEMVRAYREKIEKELEAVCQDVLSLLDNYLIKNCSETQYESKVFYLKMKGDYYRYLAEVATGEKRATVVESSEKAYSEAHEISKEHMQPTHPIRLGLALNYSVFYYEIQNAPEQACHLAKTAFDDAIAELDTLNEDSYKDSTLIMQLLRDNLTLWTSDQQDDDGGEGNN
B2: the binding entry in assay [1] and in assay [3] was “binds” each time.

B3: 14-3-3 η (protein, UniProt Q04917 1-246)
chain: MGDREQLLQRARLAEQAERYDDMASAMKAVTELNEPLSNEDRNLLSVAYKNVVGARRSSWRVISSIEQKTMADGNEKKLEKVKAYREKIEKELETVCNDVLSLLDKFLIKNCNDFQYESKVFYLKMKGDYYRYLAEVASGEKKNSVVEASEAAYKEAFEISKEQMQPTHPIRLGLALNFSVFYYEIQNAPEQACLLAKQAFDDAIAELDTLNEDSYKDSTLIMQLLRDNLTLWTSDQQDEEAGEGN
Turning to B3, the values for the binding entry in assay [4] and in assay [1] were “no binding” and “binds”, respectively.

B4: 14-3-3τ (protein, UniProt P27348 1-245)
chain: MEKTELIQKAKLAEQAERYDDMATCMKAVTEQGAELSNEERNLLSVAYKNVVGGRRSAWRVISSIEQKTDTSDKKLQLIKDYREKVESELRSICTTVLELLDKYLIANATNPESKVFYLKMKGDYFRYLAEVACGDDRKQTIDNSQGAYQEAFDISKKEMQPTHPIRLGLALNFSVFYYEILNNPELACTLAKTAFDEAIAELDTLNEDSYKDSTLIMQLLRDNLTLWTSDSAGEECDAAEGAEN
For B4, the binding result in assay [1] is on record as “binds”.
